Numbering of substitutions follows the chain as printed. Results are given in words; binding and its absence hold for the method and conditions named. Some binding calls cover weakened binding; strength is not graded here. One block for each binder: values may come before it.
Assays:
[1] = target: human MerTK endogenously expressed on cells (SK-MEL-5 cells; human macrophages) (human) (UniProt Q12866); test: flow cytometry on SK-MEL-5 cells
[2] = target: Recombinant human MerTK human Fc Chimera protein (R&D systems, Cat #391-MR-100) (human) (UniProt Q12866); test: competition ELISA: His-tagged Gas6 (3 ug/ml) binding to captured human MerTK-Fc, anti-His-HRP detection; blocked ligand Gas6
[3] = target: human MerTK extracellular domain (ECD), recombinant (human) (UniProt Q12866); test: SPR, Carterra LSA
[4] = target: cyno MerTK extracellular domain (ECD), recombinant (cynomolgus monkey); test: SPR, Carterra LSA
[5] = target: human MerTK endogenously expressed on cells (SK-MEL-5 cells; human macrophages) (human) (UniProt Q12866); test: flow cytometry on SK-MEL-5 cells (endogenous human MerTK), APC anti-human kappa detection, MFI

Amino acid sequences for entries named in this document (tags omitted). A change or cut given only in a name is not applied to a line headed by its entry.
UniProt Q12866: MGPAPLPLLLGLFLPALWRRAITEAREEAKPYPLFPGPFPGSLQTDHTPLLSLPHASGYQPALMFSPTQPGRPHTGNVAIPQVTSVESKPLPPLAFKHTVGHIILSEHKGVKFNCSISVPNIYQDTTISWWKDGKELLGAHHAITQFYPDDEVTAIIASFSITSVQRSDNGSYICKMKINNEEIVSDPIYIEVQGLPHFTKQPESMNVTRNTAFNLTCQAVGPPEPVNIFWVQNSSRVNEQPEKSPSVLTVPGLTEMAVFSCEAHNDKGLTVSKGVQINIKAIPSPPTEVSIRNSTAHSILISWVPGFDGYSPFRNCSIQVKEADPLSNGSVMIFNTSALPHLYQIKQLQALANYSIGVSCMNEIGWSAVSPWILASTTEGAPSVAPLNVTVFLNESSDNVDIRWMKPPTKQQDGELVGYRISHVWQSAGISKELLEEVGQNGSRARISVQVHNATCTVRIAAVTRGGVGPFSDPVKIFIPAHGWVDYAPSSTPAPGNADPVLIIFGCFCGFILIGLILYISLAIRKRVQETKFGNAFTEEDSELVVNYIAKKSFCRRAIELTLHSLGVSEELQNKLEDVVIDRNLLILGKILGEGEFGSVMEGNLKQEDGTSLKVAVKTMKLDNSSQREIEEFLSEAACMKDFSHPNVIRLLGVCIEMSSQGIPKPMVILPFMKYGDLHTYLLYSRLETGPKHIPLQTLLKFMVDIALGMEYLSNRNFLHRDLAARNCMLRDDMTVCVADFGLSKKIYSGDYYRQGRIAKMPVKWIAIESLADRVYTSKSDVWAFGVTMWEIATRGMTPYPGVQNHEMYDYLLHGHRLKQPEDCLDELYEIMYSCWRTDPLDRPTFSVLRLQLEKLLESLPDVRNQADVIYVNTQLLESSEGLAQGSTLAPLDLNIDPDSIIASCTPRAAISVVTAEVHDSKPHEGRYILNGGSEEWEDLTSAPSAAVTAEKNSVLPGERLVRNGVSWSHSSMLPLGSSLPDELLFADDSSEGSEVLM

- binding [1]: binds
- binding [2]: binds
- binding [3]: binds
- binding [4]: binds
- binding [5]: binds
B1: MTK-16 (antibody, human IgG1, V domains shown)
VH: LIQLVQSGPELKKPGETVKISCKASGYTFTNHGMNWVKQDPGKGLKWMGWINTYTGEPTYADDFKGRFVFSMETSASAAFLQINNLKNEDTATYFCARKGVTAARYFDYWGQGTTLTVSS
VL: DIVMTQSPKFMSTSVGDRVSITCKASQNVRTAVAWYKKKPGQSPKALINLASNRHTGVPDRFTGSGSGTDFTLTISNVQSEDLADYFCLQHWNYPLTFGGGTKLEIK

- binding [3]: binds
- binding [4]: binds
B2: MTK-27 (antibody, human IgG1, V domains shown)
VH: EVQLQQSGTELVRPGASVKLSCTASGFNIKDDYMHWVQQRPEQGLEWIGWIDPENGNTEYASKFQGKATITADASSNTAYLQLSSLTSEDTAVYYCSTLFSNYFDYWGQGTTLTVSS
VL: B1 VL with P8Q, A32S, K37Q, K38Q, N49Y, Q79R, L96Y
